# Reference: PubChem BioAssay AID493014 (National Center for Advancing Translational Sciences (NCATS), 2011)
# Where “and” joins values, the source holds several entries; their conditions need not be identical. Equal values may be shown once. This is one part of the list. Shown are side measurements of this screen, not its main read-out; they come without a call. Compounds called inactive in the main read-out are mostly missing here. The note in brackets gives the kind of curve behind each potency; many fits are weak.
# Assay: qHTS Assay to Find Inhibitors of Chronic Active B-Cell Receptor Signaling
# Settings: ABC-DLBCL IkBa-CBG/CBR reporter, luminescence ratio (green luciferase fused to IkBa over red control in TMD8 lymphoma cells), 4 h
# In short: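 TMD8 human ABC-DLBCL cells with doxycycline-inducible IκBα–green luciferase fusion and unfused red luciferase, in 0.5% FBS medium; compounds up to 46 uM, 4 h at 37C. Green/red luminescence ratio, filter-overlap corrected, fitted to concentration-response curves.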
# [1] = measured here: CBR red luminescence, cell number
# [2] = measured here: IkBa-CBG green luminescence
SMILES,AC50 [1],AC50 [2]
COc1ccc(C(c2sc3ncnn3c2O)N2CCN(c3ccccc3F)CC2)cc1OC (stereo not given),"20.6 µM [falling, single point]",
CCOC(=O)C(=O)c1c(C)cc2ccccn12,"12.6 µM [rising, single point]","15.8 µM [falling, single point]"
O=C(c1cccs1)N1CCN(C2CCN(Cc3ccccc3)CC2)CC1,"0.731 µM [rising, partial curve, poor fit]",
CCN1CCN(C(=O)CN(c2cccc(Br)c2)S(=O)(=O)c2ccccc2)CC1,"3.26 µM [rising, partial curve, poor fit]",
CC1(C)c2ccccc2-n2c1cc1oc(=O)cc(O)c1c2=O,"3.55 µM [falling, single point]",
COC(=O)C(/C=N/OCc1ccc([N+](=O)[O-])cc1)NC(=O)c1ccccc1 (stereo not given),"18.4 µM [rising, partial curve, poor fit]",
COc1ccc(OCC(=O)OC2CCN(C)CC2)cc1,"0.00411 µM [falling, full curve, poor fit]",
O=C(CCl)Nc1cccc(-c2cnc3ccccc3n2)c1,"4.11 µM [falling, full curve, poor fit]",
COc1ccc(-n2cnnc2SCC(=O)c2ccc(S(=O)(=O)N3CCOCC3)cc2)cc1,"35.5 µM [rising, single point]",
Cc1cc2cc(CNC(=O)c3cccs3)ccc2n1C,"6.51 µM [rising, single point]",
CC(C)c1nnc(NC(=O)C2CCN(C(=O)c3ccco3)CC2)s1,"17.8 µM [rising, partial curve, poor fit]",
Nc1nnn(CC(=O)N/N=C/c2ccco2)n1,"25.1 µM [falling, single point]",
O=C1CC(NCc2cccs2)C(=O)N1c1ccc(Cl)cc1 (stereo not given),"3.66 µM [falling, partial curve, poor fit]",
CSc1ccc(C(=O)/C=C/c2ccc(N)cc2)cc1,"29.1 µM [falling, single point]",
Cc1cccc(C2=NN(c3ccccc3)[C@@H](C(=O)N3CCOC3=O)[C@@H]2c2ccc(Cl)cc2)c1,"18.4 µM [rising, partial curve, poor fit]",
Cc1ccc2oc(=O)c3cnn(CC(=O)N(CCN(C)C)Cc4ccco4)c3c2c1,"13 µM [falling, partial curve, poor fit]",
CC(=O)c1c(CSc2ccccc2)oc2ccc(O)c(CN(C)C)c12,"12.6 µM [falling, partial curve]",
Cc1ccc(Cn2c([N+](=O)[O-])cnc2C)cc1,"29.1 µM [rising, single point]",
CCOc1cccc2sc(N(CCN(C)C)C(=O)/C=C/c3cccs3)nc12,"17.8 µM [falling, single point]",
COc1cccc(C(CC(=O)Nc2cccc3ccccc23)NC(=O)c2ccccc2)c1 (stereo not given),"12.6 µM [rising, partial curve, poor fit]",
CC(C)CC(NC(=O)C(NC(=O)C1OC2OC(C)(C)OC2C2OC(C)(C)OC12)C(C)C)C(=O)O (stereo not given),"31.6 µM [rising, single point]",

SMILES,AC50 [1],AC50 [2]
COC(=O)c1c(C)oc2ccc(N(C(=O)c3ccncc3)S(=O)(=O)c3ccccc3)cc12,"1.26 µM [falling, full curve, poor fit]",
O=C(NCCc1nc2ccccc2[nH]1)/C(=C/c1ccc(F)cc1)NC(=O)c1ccco1,"7.94 µM [falling, partial curve]",
COc1ccc(CCNC(=O)C(=O)c2cn(CC(=O)N3CCOCC3)c3ccccc23)cc1OC,"1.58 µM [falling, full curve, poor fit]",
CCOC(=O)Cn1cc(C#N)c2cccc(CC)c21,"35.5 µM [rising, single point]",
CCN1CCN(c2cc(N3CCc4ccccc4C3)c(F)cc2[N+](=O)[O-])CC1,"29.1 µM [falling, single point]",
Cc1cccc(C)c1NS(=O)(=O)c1ccc(NC(=O)c2ccc(Cl)c([N+](=O)[O-])c2)cc1,"4.47 µM [falling, full curve, poor fit]",
CCC(=O)N1CCc2cc(Br)cc(S(=O)(=O)N3CCC(C(=O)Nc4ccc(OC)cc4)CC3)c21,"14.1 µM [rising, partial curve]",
CCN1CCN(C(=S)c2ccc(Cl)c(Cl)c2)CC1,"2.06 µM [falling, partial curve, poor fit]","3.26 µM [rising, partial curve, poor fit]"
COc1ccc(NC(=O)CSc2nc(-c3cccs3)cc(C(F)(F)F)n2)cc1OC,"15.8 µM [rising, partial curve, poor fit]",
CCOC(=O)c1ccc(N/C=C/C(=O)c2ccc(OC)c(OC)c2)cc1,"1.12 µM [falling, full curve, poor fit]",
O=C(NNC(=O)C(c1ccccc1)c1ccccc1)c1ccccn1,"3.26 µM [rising, full curve]","16.4 µM [falling, partial curve, poor fit]"
CCOCc1nnc(NC(=O)COc2ccc3c(c2)OCO3)s1,"0.562 µM [falling, full curve, poor fit]",
Cc1ccc(NC(=O)CCC(=O)N/N=C/c2coc3ccccc3c2=O)cc1,"25.1 µM [falling, single point]",
Cc1sc(Nc2ccc([N+](=O)[O-])cc2)nc1-c1c(C)n(C)n(-c2ccccc2)c1=O,"3.16 µM [rising, single point]",
c1ccc(-c2n[nH]c3ccccc23)cc1,"6.51 µM [falling, single point]",
CC(C)(C)C(=O)O/N=C(\N)c1ccc(-c2csnn2)cc1,"7.94 µM [rising, partial curve]",
Cc1ccc(C)c(-c2[nH]ncc2CN2CCCC(CO)(Cc3ccccc3C)C2)c1 (stereo not given),"15.8 µM [falling, partial curve, poor fit]",
Nc1c(C(=O)Nc2ccc3c(c2)OCCO3)nnn1Cc1ccccc1Cl,"6.51 µM [falling, partial curve, poor fit]",
CC(=O)c1cc2c(cc1N/C(=N/S(=O)(=O)c1ccc(C)cc1)c1ccccc1)OCO2,"11.2 µM [falling, partial curve, poor fit]",
Cc1nc2ccccc2cc1C(=O)N/N=C/c1cccc([N+](=O)[O-])c1,"1.84 µM [rising, partial curve, poor fit]",
CCOC(=O)C1CCCN(S(=O)(=O)c2ccc(F)c(C(=O)Nc3ccc(F)c(F)c3)c2)C1 (stereo not given),"7.94 µM [falling, partial curve]",

SMILES,AC50 [1],AC50 [2]
COc1cccc(CNC(=O)C2CCCN(c3nn4c(=O)cc(C)nc4s3)C2)c1 (stereo not given),"11.2 µM [rising, partial curve]",
CSCC[C@H](NC(=O)[C@@H]1Cc2ccccc2CN1)C(=O)Nc1cccc(C)c1,"20 µM [falling, single point]",
CCCn1c(=S)[nH]c2cc(C(=O)NCC3CCCO3)ccc2c1=O (stereo not given),"0.259 µM [falling, full curve]",
Cc1cccc(C(=O)O/N=C2\CCS(=O)(=O)c3sccc32)c1,"12.6 µM [falling, partial curve]",
CCc1ccc(CN(C)CCc2ccccn2)cc1,"23.1 µM [rising, single point]",
COCCn1c(Cc2ccccc2)nnc1SC(C)C(=O)NC1CC1 (stereo not given),"0.731 µM [rising, partial curve, poor fit]",
Cc1cc(N2CCN(c3ccccc3)CC2)n2cc(-c3ccccc3)nc2n1,"17.8 µM [falling, single point]",
CCSc1nnc(NC(=O)c2nc3nc(C)cc(C)n3n2)s1,"10 µM [falling, partial curve]",
Cc1cccc(SCc2noc(C(=O)NC(C)C)c2C(=O)O)c1,"35.5 µM [falling, single point]",
CS(=O)(=O)c1ccc(Sc2nc3ccccc3[nH]2)c([N+](=O)[O-])c1,"14.1 µM [falling, partial curve]",
NC(=O)c1cccc(-c2noc(-c3ccccc3F)n2)c1,"8.2 µM [falling, partial curve] and 13 µM [falling, partial curve]",
O=C(c1ccccc1)c1cc(-c2ccccn2)c(N2CCOCC2)s1,"0.794 µM [falling, full curve, poor fit]",
COCc1cc(=O)n2c([nH]c3ccccc32)c1C#N,"0.731 µM [falling, full curve]",
Cc1ccc2[nH]c3c(c2c1)CN(C(=O)CN1CCN(Cc2ccc4c(c2)OCO4)CC1)CC3,"28.2 µM [falling, single point]",
Nc1cc2c([N+](=O)[O-])cccc2o1,"5.01 µM [falling, partial curve, poor fit]",
Cc1ccc(S(=O)(=O)NCCNC(=O)c2cc(OCC(F)(F)F)ccc2OCC(F)(F)F)cc1,"15.8 µM [rising, partial curve]",
CC(/C=N/NC(=O)c1ccco1)=C\c1ccccc1,"12.6 µM [falling, partial curve]",
O=C(COc1ccccc1)NCCSCc1ccco1,"23.1 µM [rising, single point]",
COc1cc(/C=C\C(=O)NCc2ccc3c(c2)cc(C)n3C)cc(OC)c1OC,,"18.4 µM [falling, single point]"
COC(=O)CCC(=O)N(CCN(C(=O)CCC(=O)OC)c1ccccc1)c1ccccc1,"35.5 µM [falling, single point]",

# An excerpt from the list above, as a working copy:
SMILES,AC50 [1],AC50 [2]
c1ccc(-c2n[nH]c3ccccc23)cc1,"6.51 µM [falling, single point]",
CC(C)(C)C(=O)O/N=C(\N)c1ccc(-c2csnn2)cc1,"7.94 µM [rising, partial curve]",

# Reprinted at random: 2 compounds from above, in no set order.
SMILES,AC50 [1],AC50 [2]
CCSc1nnc(NC(=O)c2nc3nc(C)cc(C)n3n2)s1,"10 µM [falling, partial curve]",
Nc1cc2c([N+](=O)[O-])cccc2o1,"5.01 µM [falling, partial curve, poor fit]",
